Measurements taken from US20220249438A1, “CARBOCYANINE COMPOUNDS FOR TARGETING MITOCHONDRIA AND ERADICATING CANCER STEM CELLS” (LUNELLA BIOTECH, INC., priority 2019, published 2022).

Each compound was assayed on MCF7 CSCs (assay: Dye internalization in MCF7 3D-mammospheres (fluorescent microscopy)). Details: nano-molar range.
Format: cell-based, Human

Compound	incorporation into 3D-mammospheres
CN1\C(=C/C=C/C=C/C=C/C2=[N+](C)c3ccccc3C2(C)C)C(C)(C)c2ccccc21 [HITC]	efficiently incorporated
CCCN1/C(=C/C=C2\CCCC(/C=C/C3=[N+](CCC)c4ccccc4C3(C)C)=C2Cl)C(C)(C)c2ccccc21 [IR-780]	not taken up
CCN1/C(=C/C=C/C=C/c2ccc3ccccc3[n+]2CC)C=Cc2ccccc21 [DDI]	efficiently incorporated
